This is one part of the list.
How the values were obtained:
[1] = biological target: DDX39B_Q13838_165_KNCPHIVVGTPGR (UniProt Q13838); experiment: probe-labelled cysteine peptide fold change vs DMSO (competition) (log2 fold change); higher = less target engagement (more negative = stronger competition); details: THP-1, incubation time: 4 h
[2] = biological target: DDX39B_Q13838_165_NCPHIVVGTPGR (UniProt Q13838); experiment: as above; details: THP-1, incubation time: 4 h
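Further: competitive profiling in live THP-1 cells: cysteine peptides tagged with an iodoacetamide desthiobiotin (IA-DTB) probe, intensity after compound treatment relative to DMSO-treated cells.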

Chains of the proteins cited; added tags and fusions are not shown.
UniProt Q13838, whole entry, looked up: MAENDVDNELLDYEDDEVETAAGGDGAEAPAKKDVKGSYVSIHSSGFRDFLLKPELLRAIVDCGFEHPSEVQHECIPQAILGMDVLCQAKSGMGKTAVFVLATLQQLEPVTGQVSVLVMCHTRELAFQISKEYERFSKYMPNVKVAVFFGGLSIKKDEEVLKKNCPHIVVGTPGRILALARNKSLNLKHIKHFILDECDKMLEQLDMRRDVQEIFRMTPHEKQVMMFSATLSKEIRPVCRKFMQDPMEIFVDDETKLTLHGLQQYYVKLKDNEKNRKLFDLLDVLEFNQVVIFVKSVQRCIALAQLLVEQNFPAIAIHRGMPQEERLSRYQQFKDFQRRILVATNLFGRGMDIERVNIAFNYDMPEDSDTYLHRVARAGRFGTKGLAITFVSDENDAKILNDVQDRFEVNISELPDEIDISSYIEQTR

SMILES: Cc1cc(C(=O)N2CCCN(C(=O)CCl)CC2)ccc1-c1ccccc1 [compound 10]
- probe-labelled cysteine peptide fold change ([1]; 10 µM): -0.117
- probe-labelled cysteine peptide fold change ([1]; 50 µM): -0.173
- probe-labelled cysteine peptide fold change ([2]; 10 µM): 0.0169
- probe-labelled cysteine peptide fold change ([2]; 50 µM): 0.0264

Reference: the supplement of paper PMC12067093, “Discovery and optimisation of a covalent ligand for TRIM25 and its application to targeted protein ubiquitination” (Chemical Science, 2025)
